Among the data in PubChem BioAssay AID330 (DTP/NCI, 2004) are T/C values, retold here.

The list shows only some results of the screen, not a fair sample: it covers a few groups of compounds. Other doses and runs of a compound may be missing. T/C gives the treated animals as a percentage of the vehicle group. Where survival is the endpoint, the PubChem record calls one and a half times the control and up active, and a quarter to a half above the control has no call in these data; cut-offs in other NCI protocols can differ. Some entries show no survivor count and are marked so; the dose need not have been tolerated. Schedules are NCI's codes, read here as Q, the interval in days (D) or hours (H), X, the number of doses. Some entries hold several experiments; the results are listed from low to high.

In this test the test system is P388 leukemia ip, CD2F1 mice, survival T/C. The test is described as follows: NCI In Vivo Anticancer Drug Screen. Data for tumor model P388 Leukemia (intraperitoneal) in CD2F1 (CDF1) mice. The note with it: T/C endpoint: median survival time, vehicle: saline, higher T/C = longer survival.

Regarding `BrCCN(CCBr)Cc1ccccc1`, the T/C is 137 [survivor count not shown] and 162 % of control [survivor count not shown] (dose: 0.6 mg/kg/injection, schedule: Q01DX009 (ip)); 152 [survivor count not shown] and 162 % of control [survivor count not shown] (dose: 1.3 mg/kg/injection, schedule: Q01DX009 (ip)); 90 [survivor count not shown], 135 [survivor count not shown], 174 % of control [survivor count not shown] (dose: 2.6 mg/kg/injection, schedule: Q01DX009 (ip)); 143 [survivor count not shown] and 165 % of control [survivor count not shown] (dose: 2.6 mg/kg/injection, schedule: Q04DX003 (ip)); 146 [survivor count not shown] and 171 % of control [survivor count not shown] (dose: 4.0 mg/kg/injection, schedule: Q04DX003 (ip)); 123 [survivor count not shown] and 153 % of control [survivor count not shown] (dose: 6.0 mg/kg/injection, schedule: Q04DX003 (ip)). Moreover, the T/C (dose: 9.0 mg/kg/injection, schedule: Q04DX003 (ip)) is 109 % of control [survivor count not shown].
